# Values joined by “and” are separate entries in the source; they are usually repeats but may differ in a detail not shown here. Equal values may be shown once. The list shows a part of the results. Each value is one well over the wells without odorant, computed here; the data are noisy.
# Tested on: pseudo clone 1419
# Experiment: odorant receptor activation (CRE luciferase / Renilla) (fold of no-odor wells); higher = more activation
# Conditions: 100 µM
row,SMILES,odorant receptor activation
1,CCOc1cc(C=O)ccc1O [ethyl vanillin],1.3 and 1.23
2,CS [methanethiol],1.16
3,CCCCOC(C)=O [butyl acetate],0.334
4,CCC(C)=O [2-butanone],0.967
